PubChem BioAssay AID686943, Drosophila RNAi Screening Center, 2013
In all, the deposit lists about 23,000 reagents; this is an unselected part of those that have a named target and a result. 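Extra replicates exist only for a retested subset of genes; insulin dose and duration not given; both raised and lowered dpERK matter.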 Names joined by + are all predicted targets of the reagent. Further read-outs or replicates are left out here. Not stated in the record: the amount of reagent, the time to read-out.

Assay: 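Knockdowns that increase or decrease active ERK after insulin receptor stimulation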 (primary screen)
Cell system: Drosophila S2R+ haemocyte-like cells expressing YFP-tagged ERK (Rolled)
Reagents: long dsRNA against Drosophila genes
Treatment: insulin stimulation versus unstimulated cells; dose and duration not given
Read-out: 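Antibody staining for doubly phosphorylated ERK divided by ERK-YFP signal, as plate z-scores, in insulin-treated and untreated cells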
Reading the numbers: replicate 1, z-score of dpERK with insulin: higher = more active ERK per ERK-YFP after insulin

Gene	PubChem SID	replicate 1, z-score of dpERK with insulin
CG10576	SID104189537	-0.16
ry (rosy)	SID104196840	-0.33
CG8774	SID104196237	0.6
Cyt-b5 (Cytochrome b5)	SID104187184	-0.08
msopa (male-specific opa containing gene)	SID104191687	-6.89
CG4270	SID104180440	-0.34
CG13203	SID104186119	-0.19
CG1677	SID104197908	-0.9
CG43317	SID104194792	0.19
CG34028	SID104197406	-0.17
Arfip (Arfaptin)	SID104194971	-0.13
CG18766	SID104195728	1.3
Mccc1 (Methylcrotonoyl-CoA carboxylase 1)	SID104195209	-0.07
Lar (Leukocyte-antigen-related-like)	SID104181499	-1.01
Lar (Leukocyte-antigen-related-like)	SID104183153	-0.61
CG8520	SID104186998	0.07
Mur82C (Mucin related 82C)	SID104191803	-3.76
Mur82C (Mucin related 82C)	SID104192004	1.11
et (eye transformer)	SID104199374	0.07
CG15734	SID104199493	0.66
Cpr65Av (Cuticular protein 65Av)	SID104189519	0.73
CG8560	SID104190786	-0.32
GATAe	SID104194015	2.59
CG9406	SID104184344	-0.24
gl (glass)	SID104196749	0.51
CG15128	SID104186342	-1.18
Obp57c + Obp57b	SID104201538	0.05
Pglym78 (Phosphoglyceromutase 78)	SID104196579	1.13
CG32199	SID104189782	-0.63
Chs2 (Chitin synthase 2)	SID104191622	0.25
AdamTS-B (ADAM metallopeptidase with thrombospondin type 1 motif B)	SID104197194	-0.83
AdamTS-B (ADAM metallopeptidase with thrombospondin type 1 motif B)	SID104198138	1.13
CG8435	SID104186971	1.28
TotE (Turandot E)	SID104201129	-0.43
CG13332	SID104186159	0.14
AttB (Attacin-B)	SID104186526	-0.08
CG13926	SID104188187	-0.18
Rcd1 (Reduction in Cnn dots 1)	SID104186908	-0.13
lov (jim lovell)	SID104184457	0.53
CG43066	SID104186719	0.56
Fak (Focal adhesion kinase)	SID104187218	-0.11
Rcd6 (Reduction in Cnn dots 6)	SID104185846	0.5
smg (smaug)	SID104191189	0.03
TyrR (Tyramine receptor)	SID104193051	0.78
TyrR (Tyramine receptor)	SID104196034	3.98

An excerpt from the list above, for reference:
Gene	PubChem SID	replicate 1, z-score of dpERK with insulin
CG8560	SID104190786	-0.32
GATAe	SID104194015	2.59
CG9406	SID104184344	-0.24
gl (glass)	SID104196749	0.51
CG15128	SID104186342	-1.18
Obp57c + Obp57b	SID104201538	0.05

Further results:
Gene	PubChem SID	replicate 1, z-score of dpERK with insulin
CG9095	SID104199942	0.5
mRpS7 (mitochondrial ribosomal protein S7)	SID104182606	-0.78
CG8172	SID104186881	0.1
CG8172	SID104201674	-0.22
Tsp86D (Tetraspanin 86D)	SID104195399	-0.54
dare + CG30033	SID104202267	0
Utx (Utx histone demethylase)	SID104182664	1.37
CG11456	SID104191457	0.58
CG6695	SID104195890	-2.18
Vha68-1 (Vacuolar H[+] ATPase 68kD subunit 1)	SID104183262	0.79
CG11112	SID104185830	-0.55
GC2	SID104194268	-0.19
Fum1 (Fumarase 1)	SID104198136	1.67
CG13955	SID104186235	-0.72
CG12496	SID104198394	-0.36
al (aristaless)	SID104180591	0.72
Acp53C14b (Accessory gland protein 53C14b)	SID104186361	-0.79
dome (domeless)	SID104199375	2.2
Nep2 (Neprilysin 2)	SID104191918	0.84
Nep2 (Neprilysin 2)	SID104201161	1.12
RtcB (RtcB RNA ligase)	SID104183072	0.74
CG13073	SID104189748	1.33
Tsp42Eb + CG30160	SID104184753	-0.44
Tsp42Eb + CG30160	SID104186583	0.4
Obp99a (Odorant-binding protein 99a)	SID104195095	-0.94
Ir20a (Ionotropic receptor 20a)	SID104200298	-0.27
CG2865	SID104198319	-0.35
CG2865	SID104198320	-0.78
